Results are given in words; binding and its absence hold for the method and conditions named. Some binding calls cover weakened binding; strength is not graded here. Sequences can lack the tags named with a protein.
Target: T1, soluble human MerTK with TwinStrepII-Tag (hMerTK-TS) (human) (UniProt Q12866)
T1 sequence: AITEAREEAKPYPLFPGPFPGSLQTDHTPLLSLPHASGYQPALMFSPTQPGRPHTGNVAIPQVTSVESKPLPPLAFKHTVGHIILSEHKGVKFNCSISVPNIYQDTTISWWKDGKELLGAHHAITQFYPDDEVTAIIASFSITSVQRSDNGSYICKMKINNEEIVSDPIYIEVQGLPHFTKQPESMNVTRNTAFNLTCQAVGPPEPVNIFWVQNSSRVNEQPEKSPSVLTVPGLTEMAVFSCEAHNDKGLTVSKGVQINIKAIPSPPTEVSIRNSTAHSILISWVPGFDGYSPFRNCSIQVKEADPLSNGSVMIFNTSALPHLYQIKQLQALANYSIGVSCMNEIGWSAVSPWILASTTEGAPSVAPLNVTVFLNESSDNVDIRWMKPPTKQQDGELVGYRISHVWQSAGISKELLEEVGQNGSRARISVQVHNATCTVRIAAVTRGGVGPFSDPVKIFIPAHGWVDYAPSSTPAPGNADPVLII
Test: BLI; Pros1 competition: MerK28 loaded onto AHC biosensors, associated to 500 nM hMerTK-TS alone or pre-incubated with an equimolar amount of Pros1; both purified

binding: binds
B1: Pros1 (anticoagulation factor protein S) (ligand, UniProt P07225 42-676)
chain: ANSLLEETKQGNLERECIEELCNKEEAREVFENDPETDYFYPKYLVCLRSFQTGLFTAARQSTNAYPDLRSCVNAIPDQCSPLPCNEDGYMSCKDGKASFTCTCKPGWQGEKCEFDINECKDPSNINGGCSQICDNTPGSYHCSCKNGFVMLSNKKDCKDVDECSLKPSICGTAVCKNIPGDFECECPEGYRYNLKSKSCEDIDECSENMCAQLCVNYPGGYTCYCDGKKGFKLAQDQKSCEVVSVCLPLNLDTKYELLYLAEQFAGVVLYLKFRLPEISRFSAEFDFRTYDSEGVILYAESIDHSAWLLIALRGGKIEVQLKNEHTSKITTGGDVINNGLWNMVSVEELEHSISIKIAKEAVMDINKPGPLFKPENGLLETKVYFAGFPRKVESELIKPINPRLDGCIRSWNLMKQGASGIKEIIQEKQNKHCLVTVEKGSYYPGSGIAQFHIDYNNVSSAEGWHVNVTLNIRPSTGTGVMLALVSGNNTVPFAVSLVDSTSEKSQDILLSVENTVIYRIQALSLCSDQQSHLEFRVNRNNLELSTPLKIETISHEDLQRQLAVLDKAMKAKVATYLGGLPDVPFSATPVNAFYNGCMEVNINGVQLDLDEAISKHNDIRAHSCPSVWKKTKNS
